PubChem BioAssay AID1053208 – Peter MacCallum Cancer Centre, 2014

- Purpose: 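Find knock-downs that sensitise mouse osteosarcoma cells to doxorubicin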 (primary screen)
- Cell system: mouse osteosarcoma cells, early-passage culture from an engineered mouse model of fibroblastic bone tumour
- Reagents: siRNA pool against mouse genes, 40 nM
- Duration: about 120 h (48 h before drug, then 72 h with drug)
- Challenge: doxorubicin 100 nM for 72 h, roughly 30-40% inhibitory dose
- Read-out: 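Viability read as ATP luminescence after 72 h of 100 nM doxorubicin or none, duplicate wells averaged, scaled to non-targeting siRNA, then expressed as robust z-scores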
- Reading the numbers: viability z-score with doxorubicin: higher = more viable cells under doxorubicin; viability z-score without drug: higher = more viable cells with knock-down alone
- Call rule: 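a pool counts as active when its viability z-score with doxorubicin is -2 or below and its z-score without drug lies between -2 and 2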
Shown is a random part of about 17,000 reagents. In the full data, 788 (4.7%) got an active call. 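Calls rest on z-score classes alone; an extra cut-off of viability at most 70% of control was not applied to them.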 Further read-outs or replicates are left out here.

C87436 (expressed sequence C87436) — combined z-score class: no change with or without drug; viability z-score with doxorubicin: -1.57; viability z-score without drug: 0.17; Call: inactive
Fcer1a (Fc receptor, IgE, high affinity I, alpha polypeptide) — combined z-score class: no change with or without drug; viability z-score with doxorubicin: -0.9; viability z-score without drug: -0.34; Call: inactive
Ikzf1 (IKAROS family zinc finger 1) — combined z-score class: high cell count without drug only; viability z-score with doxorubicin: 1.12; viability z-score without drug: 2.53; Call: inactive
Uxs1 (UDP-glucuronate decarboxylase 1) — combined z-score class: no change with or without drug; viability z-score with doxorubicin: -1.69; viability z-score without drug: -0.84; Call: inactive
Sned1 (sushi, nidogen and EGF-like domains 1) — combined z-score class: high cell count with doxorubicin only; viability z-score with doxorubicin: 2.14; viability z-score without drug: 0.84; Call: inactive
Vegfa (vascular endothelial growth factor A) — combined z-score class: no change with or without drug; viability z-score with doxorubicin: 1.35; viability z-score without drug: 0.17; Call: inactive
Tbc1d7 (TBC1 domain family, member 7) — combined z-score class: no change with or without drug; viability z-score with doxorubicin: -0.34; viability z-score without drug: -0.17; Call: inactive
Gipc2 (GIPC PDZ domain containing family, member 2) — combined z-score class: no change with or without drug; viability z-score with doxorubicin: 0.34; viability z-score without drug: 1.18; Call: inactive
Ttll8 (tubulin tyrosine ligase-like family, member 8) — combined z-score class: no change with or without drug; viability z-score with doxorubicin: 0.45; viability z-score without drug: 0; Call: inactive
Zfp622 (zinc finger protein 622) — combined z-score class: no change with or without drug; viability z-score with doxorubicin: 1.35; viability z-score without drug: 0.17; Call: inactive
Arih1 (ariadne RBR E3 ubiquitin protein ligase 1) — combined z-score class: no change with or without drug; viability z-score with doxorubicin: -0.56; viability z-score without drug: -1.52; Call: inactive
9930014A18Rik (RIKEN cDNA 9930014A18 gene) — combined z-score class: no change with or without drug; viability z-score with doxorubicin: 0.34; viability z-score without drug: 0.84; Call: inactive

Already shown: 2 of the entries above.
Ttll8 (tubulin tyrosine ligase-like family, member 8) — combined z-score class: no change with or without drug; viability z-score with doxorubicin: 0.45; viability z-score without drug: 0; Call: inactive
Zfp622 (zinc finger protein 622) — combined z-score class: no change with or without drug; viability z-score with doxorubicin: 1.35; viability z-score without drug: 0.17; Call: inactive
